Assay results reported in PubChem BioAssay AID652054 (National Center for Advancing Translational Sciences (NCATS), 2013).
About 9,100 (2.5%) of roughly 360,000 compounds were called active. Inconclusive means that the source gave no clear call. Such entries were picked first, then a sample of the others. Rule as the data show it: active = max response below about -50%; inconclusive = no clear call, values can overlap the other calls; inactive = above that.

Protein sequences, listed by entry. Tags and fused reporters are not part of them.
UniProt P35462, whole entry, looked up: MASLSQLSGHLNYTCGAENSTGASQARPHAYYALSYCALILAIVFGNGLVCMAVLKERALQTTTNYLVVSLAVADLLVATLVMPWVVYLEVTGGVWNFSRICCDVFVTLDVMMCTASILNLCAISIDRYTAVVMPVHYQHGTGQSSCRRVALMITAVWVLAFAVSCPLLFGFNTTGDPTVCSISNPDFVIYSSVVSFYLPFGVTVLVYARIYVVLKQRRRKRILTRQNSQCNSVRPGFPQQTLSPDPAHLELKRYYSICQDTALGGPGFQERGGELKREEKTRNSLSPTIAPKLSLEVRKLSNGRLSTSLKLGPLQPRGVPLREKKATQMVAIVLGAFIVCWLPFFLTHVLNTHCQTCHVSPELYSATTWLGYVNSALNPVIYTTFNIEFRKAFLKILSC

Molecular target: D(3) dopamine receptor (Homo sapiens) (UniProt P35462)
Assay: qHTS of D3 Dopamine Receptor Antagonist: qHTS
Conditions: D3R cells, DiscoveRx beta-arrestin luminescence, antagonist mode; stronger effect = lower value
Summary of the method: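 Cells expressing the human receptor were seeded at 1500 cells/well, incubated overnight at 37 degrees C in 5% CO2, then exposed to library compounds with dopamine controls for 90 minutes at 37 degrees C before luminescent detection.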
% is scaled to controls: 0 for no effect and ±100 for the full control effect.

Row | SMILES | max response, negative = inhibition
1 | COc1ccc(N2CCN(c3nc4c(c(=O)n(C)c(=O)n4C)n3CCCc3ccccc3)CC2)cc1 | inconclusive: -33.4%
2 | CN(C)CCN(C)Cc1ccccc1Sc1cccc2ccccc12 | inconclusive: -44.3%
3 | OCC1OC(n2cnc3ncccc32)C(O)C1O (centres undefined) | inconclusive: -33%
4 | CC1Nc2ncnc(N3CCN(c4ccccn4)CC3)c2N(Cc2ccccc2)C1=O (centres undefined) | active: -106%
5 | COc1ccc(/C=C2\SC(=O)N(CCC(=O)N3CCCCC3)C2=O)cc1OC | inactive: 2.53%
6 | O=C(CCC(=O)Nc1cccc(Cl)c1)N/N=C/c1cc([N+](=O)[O-])ccc1O | active: -61.6%
7 | CCCCC(=O)N(C)c1c(CC)nc2c(OCc3ccc(Cl)cc3Cl)cccn12 | active: -63.9%
8 | O=C1C(=Cc2ccncc2)CCCc2ccccc21 | inactive: -9.6%
9 | Cc1ccc2nc(SCC(=O)Nc3cccc([N+](=O)[O-])c3)[nH]c2c1 | active: -52.1%
10 | CCc1ccc(OCC(=O)NCC(c2ccc(Cl)cc2)N2CCCCC2)cc1 (centres undefined) | inconclusive: -46.8%
11 | COC(=O)Cc1ccc(OC2(C)CCN(Cc3ccc4c(c3)OCCO4)C2)cc1 (centres undefined) | inconclusive: -47.6%
12 | Cc1cccc(CC(Cc2nc3ccccc3[nH]2)c2nc3ccccc3[nH]2)c1 (centres undefined) | inconclusive: -48.5%
13 | CC(C)CN1C(=O)C(=O)N(CC(=O)NCc2ccc3c(c2)OCO3)C1=O | active: -52.5%
14 | Fc1ccc(CNc2nc(-c3ccco3)cc(C(F)(F)F)n2)cc1 | inactive: 13.2%
15 | Cc1ccc(C)c(NS(=O)(=O)c2ccc(-c3cnc(C4CC4)o3)cc2)c1 | inactive: -5.23%
16 | C[C@H](CO)N1C[C@H](C)[C@@H](CN(C)C(=O)Nc2ccc(C(F)(F)F)cc2)Oc2ccc(NS(=O)(=O)c3cn(C)cn3)cc2C1=O | inconclusive: -37%
17 | CC1CCC(NC(=O)C2CCN(C(=O)Nc3ccccc3)CC2)CC1 (centres undefined) | inactive: 0.0425%
18 | O=C(CN1CCN(c2ccc(Cl)cc2)CC1)Nc1ccc(F)cc1 | inconclusive: -39.7%
19 | Cc1cccc(C(=O)N2CCN(CCNC(=O)C(=O)Nc3ccc(F)cc3)CC2)c1 | inactive: 11.2%
20 | COC(=O)[C@H]1C[C@H]1[C@@H](NC(=O)c1ccc[nH]1)c1ccccc1 | inactive: 33.3%
21 | CC(=O)C1=CCC(c2ccc(Cl)cc2)N(S(=O)(=O)c2ccccc2)C1 (centres undefined) | inactive: 0%
22 | COC(=O)c1[nH]c2ccc(C)cc2c1NS(=O)(=O)c1ccc(F)c(C)c1 | active: -51.2%
23 | O=C(NC1CCN(Cc2ccc(Cl)cc2)CC1)c1cn(-c2ccccc2)nc1-c1cccnc1 | active: -61.7%

Row | SMILES | max response, negative = inhibition
24 | COCCNC(=O)c1cc2c3ccccc3n(C)c2s1 | inconclusive: -33.9%
25 | Cc1ccc(-c2nnc(SCc3ccc(C#N)cc3)n2Cc2ccco2)cc1 | inconclusive: -36.4%
26 | O=[N+]([O-])c1ccccc1/C=C/CN1CCC(O)CC1 | inconclusive: -42.4%
27 | COCCNC(=O)Cn1cc(/C=C(\C#N)C(=O)NC2CCCC2)c2ccccc21 | active: -59.7%
28 | Cc1cc(C(=O)N/N=C/c2cc(Cl)cc([N+](=O)[O-])c2O)c2ccccc2n1 | active: -66%
29 | CCC(C)(C)n1nnnc1C(c1ccc(C)cc1)N1CCC(C)CC1 (centres undefined) | inconclusive: -38.6%
30 | CN1CCN(c2ccc(NC(=O)N3CCc4ccccc43)cc2)CC1 | inconclusive: -49.7%
31 | CC(NC(=O)c1ccc(C(C)(C)C)cc1)C(c1cccs1)N1CCOCC1 (centres undefined) | inconclusive: -40.1%
32 | CC(C)N1CCCC(C)(C(=O)Nc2ccc3c(c2)OCO3)C1 (centres undefined) | inconclusive: -46.2%
33 | Cc1cc(C(=O)OCC(=O)Nc2nc(-c3ccccc3)cs2)c(C)o1 | inconclusive: -48.6%
34 | Nc1cc2c(cc1Br)[nH]c(=O)c1ccccc12 | inactive: 3.47%
35 | COCCNC(=O)Nc1ccc2nc(C)sc2c1 | inconclusive: -36.6%
36 | Nc1cc2nsnc2cc1Br | inconclusive: -45.9%
37 | Cc1ccc(C(=O)CC(=O)c2ccc(C)cc2O)cc1 | active: -77.4%
38 | CCOc1cc(CNCc2ccccn2)ccc1OCC(=O)NC1CCCCC1 | active: -88.9%
39 | CCCCC(=O)NC(c1ccc([N+](=O)[O-])cc1)c1c(O)ccc2ccccc12 (centres undefined) | active: -51.8%
40 | Cc1ccc(S(=O)(=O)NC(=O)c2cccc(Br)c2)cc1 | inconclusive: -34.5%
41 | CCOC(=O)c1c(C)n(C)c2cc([N+](=O)[O-])c(O)c([N+](=O)[O-])c12 | inconclusive: -36.4%
42 | CC(C)Oc1cc(F)ccc1-c1cc(C(=O)NC2CCCCC2)[nH]n1 | inconclusive: -33.2%
43 | COc1ccc(CN2CCN(C(=O)c3cccnc3)CC2)cc1Br | inconclusive: -39.1%
44 | Nc1c(O)ccc2c1C(=O)c1ccccc1C2=O | inconclusive: -41.3%
45 | Cc1cc(=O)oc2cc(OCC(=O)NCCc3nc4ccccc4[nH]3)ccc12 | inconclusive: -30.2%
46 | Cc1ccc(C(C)C)c(OCC(=O)Nc2ccc3c(c2)nc(CCN2CCCCC2)n3C)c1 | inconclusive: -36.3%

Row | SMILES | max response, negative = inhibition
47 | O=C(NCCc1ccccc1)C(=O)NCCC1CCCCN1S(=O)(=O)c1cccs1 (centres undefined) | inactive: 1.42%
48 | COc1ccc(S(=O)(=O)N2CCCCC2c2cc(C(=O)Nc3ccc(F)c(Cl)c3)no2)cc1 (centres undefined) | inactive: -1.7%
49 | CC(C)=C1C2CCC1C1C(=O)N(c3nc(-c4ccc(F)cc4)c(C)s3)C(=O)C21 (centres undefined) | inconclusive: -30.8%
50 | CNC[C@H](O)c1cccc(O)c1 | inactive: -14.2%
51 | CSc1cccc(NC(=O)COc2ccccc2)c1 | inconclusive: -31.6%
52 | O=C(COC(=O)c1cccc(S(=O)(=O)N2CCc3ccccc32)c1)Nc1ncc(C(F)(F)F)cc1Cl | active: -56.9%
53 | O=C(CCNC(=O)c1ccc([N+](=O)[O-])cc1)Oc1ccc(F)c(F)c1 | inconclusive: -34.9%
54 | Cc1c(C(=O)NCC2CCCO2)oc2c(Cl)cccc12 (centres undefined) | inconclusive: -38.6%
55 | CCn1ccnc1CN1CCCC(C(=O)c2ccc3cc(OC)ccc3c2)C1 (centres undefined) | inconclusive: -41.7%
56 | O=C(NC(=S)NCCc1ccccc1)c1cccc(Cl)c1 | inconclusive: -38.5%
57 | CC1(C)C(=O)Nc2ccccc2N1C(=O)COC(=O)c1ccc([N+](=O)[O-])o1 | inconclusive: -32.7%
58 | O=[N+]([O-])c1ccc(C(O)C23CN4CN(CN(C4)C2)C3)cc1 (centres undefined) | active: -68.5%
59 | COC(=O)c1ccc(CSc2nc3c(c(=O)n2-c2ccc(Br)cc2)SCC3)o1 | inconclusive: -36.9%
60 | COc1cc(N2C(=O)C=CC2=O)c(OC)cc1Cl | active: -89.1%
61 | CC1CCN(C(=S)Nc2ccc(SC(F)F)cc2)CC1 | inactive: -10.1%
62 | COc1ccc2nc(SCC(=O)N3CCN(c4ccc(F)cc4)CC3)c(C#N)cc2c1 | active: -57.7%
63 | Cc1ccc(C(=O)C[n+]2cc(-c3ccccc3)n3c2CCCCC3)cc1 | inconclusive: -30.9%
64 | CC/S(CC1CC1(Cl)Cl)=N\S(=O)(=O)c1ccc(C)cc1 (centres undefined) | inconclusive: -33%
65 | OC(COc1ccccc1)CN1CCCCC1 (centres undefined) | inconclusive: -30.4%
66 | FC(F)(F)c1cccc(N2CCN(Cc3ccoc3)CC2)c1 | active: -96.2%
67 | COc1ccc(Br)cc1CNCCSc1nnnn1C | inconclusive: -48.9%
68 | Cc1cc(C)nc(NC2=NCCN2C(=O)NC2CCCCC2)n1 | inactive: 8.35%
69 | NC(=O)NC(=O)CSc1nc(-c2ccccc2)c(-c2ccccc2)n1CC1CCCO1 (centres undefined) | inconclusive: -33.9%

Row | SMILES | max response, negative = inhibition
70 | COc1cc(C(=O)NCC(c2ccco2)N2CCCC2)ccc1OCc1ccc(Cl)cc1Cl (centres undefined) | inconclusive: -46.1%
71 | O=C(OCCOc1ccccc1)c1cc(S(=O)(=O)N2CCOCC2)c(Cl)cc1Cl | inconclusive: -32.7%
72 | OC1(c2cccs2)CN(c2ccc(Cl)cc2)C2=[N+]1CCCC2 (centres undefined) | inconclusive: -33.7%
73 | CC(C)CNS(=O)(=O)c1ccc(CC(C)C)cc1 | inconclusive: -40.3%
74 | CCOC(=O)c1sc(C)c2c1NC(C)(c1cccs1)NC2=O (centres undefined) | inactive: 30.8%
75 | Cc1cc(C(C)(C)C)ccc1OCCOCCN1CCCC1 | inactive: 1.46%
76 | Nc1c(-c2ccccc2)nc2ncccn12 | inconclusive: -36.5%
77 | N#C/C(=C(/O)C(Cl)c1ccccc1)c1nc2ccccc2s1 (centres undefined) | inconclusive: -31.7%
78 | CC(C)C(=O)N1CCN(c2ccc(NC(=O)c3ccc([N+](=O)[O-])o3)cc2Cl)CC1 | inconclusive: -37.1%
79 | Cc1ccc(C(c2nnnn2CCc2ccccc2)N2CCC(C)CC2)cc1 (centres undefined) | inconclusive: -38.2%
80 | Cc1cc(C)cc(N=Cc2[nH]c3ccc(Br)c(Cl)c3c2O)c1 | inconclusive: -40.4%
81 | Nc1ccc(C2(c3ccc(N)cc3)c3ccccc3C(=O)c3ccccc32)cc1 | inconclusive: -48.4%
82 | Cc1cccc(NC(=O)c2ccccc2NC(=O)C(C)(C)C)n1 | inconclusive: -36.8%
83 | Cc1ccc(NC(=O)Cn2nc(C)c([N+](=O)[O-])c2C)cc1C | inconclusive: -43.8%
84 | CN(C)C(=O)/C(C#N)=C\c1cc(Br)c(Sc2ccc(Cl)cc2)o1 | inconclusive: -30.7%
85 | Cc1ccc(S(=O)(=O)c2nc(S(=O)(=O)c3ccccc3)sc2N2CCN(CCO)CC2)cc1 | active: -73.7%
86 | CCOc1ccccc1OCCNC1CCCC1 | active: -106%
87 | c1csc(C2CCCN2c2nc3nonc3nc2NC2CC2)n1 (centres undefined) | inactive: -9.08%
88 | CCC1=C(CC2NCCc3ccccc32)CC2c3cc(OC)c(OC)cc3CCN2C1 (centres undefined) | inactive: -7.94%
89 | O=[N+]([O-])c1ccc(/C=C/c2ccc3cccc([N+](=O)[O-])c3n2)cc1 | inconclusive: -32%
